Assay results from paper PMC10819763, “Reconstitution of the phosphodiesterase 6 maturation process important for photoreceptor cell function” (The Journal of Biological Chemistry, 2023).
These are yes or no findings as the source states them, for the method shown. Some binding calls cover weakened binding; strength is not graded here. Sequences can lack the tags named with a protein.

Protein sequences, listed by entry. Tags and fused reporters are not part of them. Residues count along the entry.
UniProt P51160, residues 1-830: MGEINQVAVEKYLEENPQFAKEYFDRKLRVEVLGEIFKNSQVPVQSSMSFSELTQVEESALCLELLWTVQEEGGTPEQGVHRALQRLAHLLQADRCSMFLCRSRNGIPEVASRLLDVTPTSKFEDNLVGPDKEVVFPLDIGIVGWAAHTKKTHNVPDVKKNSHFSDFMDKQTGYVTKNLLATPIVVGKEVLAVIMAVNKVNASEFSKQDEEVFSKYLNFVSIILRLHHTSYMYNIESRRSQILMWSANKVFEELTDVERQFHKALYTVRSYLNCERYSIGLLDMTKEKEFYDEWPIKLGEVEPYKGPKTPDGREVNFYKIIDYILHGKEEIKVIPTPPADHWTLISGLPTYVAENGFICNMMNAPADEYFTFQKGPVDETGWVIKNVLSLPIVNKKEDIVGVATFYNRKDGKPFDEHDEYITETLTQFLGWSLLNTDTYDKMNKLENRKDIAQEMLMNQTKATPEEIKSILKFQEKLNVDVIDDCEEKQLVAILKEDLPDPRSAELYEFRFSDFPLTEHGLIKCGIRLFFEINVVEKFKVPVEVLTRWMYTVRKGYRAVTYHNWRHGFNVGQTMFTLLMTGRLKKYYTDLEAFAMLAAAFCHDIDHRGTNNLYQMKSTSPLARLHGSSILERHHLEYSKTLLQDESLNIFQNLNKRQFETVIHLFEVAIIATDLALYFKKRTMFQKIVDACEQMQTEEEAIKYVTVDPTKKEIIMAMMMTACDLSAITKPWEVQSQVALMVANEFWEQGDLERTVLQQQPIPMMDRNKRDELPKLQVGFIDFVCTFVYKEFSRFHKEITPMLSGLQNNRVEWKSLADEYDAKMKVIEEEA

Molecular target: human cone PDE6C (aa 1-830), expressed as an EGFP fusion protein and released with HRV-3C protease (human) (UniProt P51160)
Assay: mass photometry; concentrated peak SEC fraction of PDE6C co-expressed with AIPL1 and Pγ; Refeyn TwoMP, 25 °C, DPBS without calcium and magnesium, 3 to 5 μl of 100 nM protein into 15 μl buffer; both purified

B1: His6-tagged bovine Pγr (rod PDE6 inhibitory γ-subunit), bacterially expressed (natural protein, UniProt P04972 1-87, looked up)
chain: MNLEPPKAEIRSATRVMGGPVTPRKGPPKFKQRQTRQFKSKPPKKGVQGFGDDIPGMEGLGTDITVICPWEAFNHLELHELAQYGII
notes: also called rod Pγ; purified recombinant Pγr
  binding: binds
